## Percent effect of library compounds

The chains behind the UniProt entries cited, without tags or fusion partners.
UniProt P9WFT3, whole entry: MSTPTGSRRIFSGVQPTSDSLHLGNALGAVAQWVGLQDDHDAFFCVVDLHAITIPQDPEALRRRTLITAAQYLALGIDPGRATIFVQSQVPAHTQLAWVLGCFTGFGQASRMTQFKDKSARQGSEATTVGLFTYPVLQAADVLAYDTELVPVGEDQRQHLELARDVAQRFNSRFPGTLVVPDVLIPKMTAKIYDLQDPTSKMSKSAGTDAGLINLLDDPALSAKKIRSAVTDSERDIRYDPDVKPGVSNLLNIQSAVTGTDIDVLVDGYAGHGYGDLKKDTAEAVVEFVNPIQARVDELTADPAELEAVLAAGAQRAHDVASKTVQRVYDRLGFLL

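Tryptophan-tRNA ligase, Mycobacterium tuberculosis (UniProt P9WFT3). Enzyme assay of tryptophanyl-tRNA synthetase; the read-out is not stated. Tested at 10 µM. Higher most likely means stronger inhibition; the record gives no direction and few retests gave an IC50. Of about 65,000 compounds tested this way, about 64 (0.098%) reached 50% or more in at least one test.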

Each number is a percent effect as filed. How 0% and 100% were set is not recorded. Most values in the screen are low, and negative values occur. Compounds were drawn at random from those tested, without regard to their results.

structure,percent effect
Cc1cnc(CN(C)Cc2cccc(OC(F)(F)F)c2)cn1,0.9202%
COc1ccccc1Oc1ncccc1CNC(=O)[C@H](C)O,1.016%
Cc1ccc(C(=O)NCC(O)c2ccc(F)c(F)c2)c(=O)[nH]1 (stereo unspecified),-1.053%
COCCN1C(=O)CCC12CCN(c1ncc(F)cn1)CC2,-1.514%
CC(C)Cc1cc(C(=O)N2CC(OCc3ccccc3F)C2)n(C)n1,-6.942%
Cn1cc(NC(=O)N2CCC(c3ccccc3)CC2)ccc1=O,6.607%
CCOCC(=O)N1CCC(C(O)c2ccc(F)cc2)CC1 (stereo unspecified),-2.794%
COCCCN(C)c1nc(-c2ccncc2)nc2c1CCN(C(C)=O)C2,-0.241%
c1cncc(-c2ccc3c(c2)C2(CC3)CCN(c3nncs3)CC2)c1,1.891%
O=C(O)c1cnc(N2CCC(O)CC2)nc1COc1cccc(F)c1,1.375%
Cc1cnn(C2CN(c3nc(C)cc(N(C)C)n3)C2)c1,-0.8489%
CC(NCCCC#N)c1ccc(S(C)(=O)=O)c(F)c1 (stereo unspecified),3.039%
O=C(CCN1CCCCC1)Nc1c2c(cc3c1CCC3)CCC2,5.791%
CCCc1nc(N(C)CCc2noc(C(C)C)n2)c2cnn(C)c2n1,39.6%
CN1CCN(S(=O)(=O)c2cccc(F)c2)c2ccccc21,5.249%
COCCC(=O)Nc1nc2c(OC)cc(F)cc2s1,2.556%
Cc1nnc(CN(C)C2CCN(CCc3cccs3)C2)n1C (stereo unspecified),-2.155%
O=C(Nc1ccc(N2CCCCC2)nc1)N1CCc2sccc2C1,-6.862%
COc1cc(F)c(NCc2nc3ccccc3n2C)cc1OC,-21.27%
CC(C#N)CN(C)Cc1nc2c(cnn2C)c(=O)[nH]1 (stereo unspecified),-4.412%
COc1ccc(COCC(O)CNC(=O)c2cc(C)no2)cc1 (stereo unspecified),-0.3834%
CCc1ocnc1C(=O)N1CCCC(n2nc(C)nc2C)C1 (stereo unspecified),-1.456%
CC(=O)Nc1ccc(CNCC(O)c2ccc(C)cc2)cc1 (stereo unspecified),1.231%
c1ccc2c(c1)CCN(c1ncnc3sc4c(c13)CCNC4)C2,2.716%
COc1cc(C(=O)NC(CC(=O)O)c2cccs2)cc(OC)c1C (stereo unspecified),-0.8946%
CC1CCN(S(=O)(=O)N2CCc3sccc3C2)CC1,1.206%
CCS(=O)(=O)NC[C@]12COC[C@H]1CN(Cc1cc(C)on1)C2,1.657%
Cc1nc(CN2C(=O)COC3(CCN(C)CC3)C2C)cs1 (stereo unspecified),2.65%
COc1ccccc1CC(C)N(C)CCS(C)(=O)=O (stereo unspecified),1.144%
Cc1noc(C2CCN(C(=O)C3CCCO3)CC2)n1 (stereo unspecified),2.083%
O=C(c1ccsc1)N1CCc2onc(COc3ccccn3)c2C1,0.183%
COCCN1CCC2(CC1)CN(C(=O)c1cccs1)CCO2,5.669%
CC(=O)NCCOc1c(C)cccc1C,-1.874%
Cc1cc(C)n(CC2(CNC(=O)C(c3ccccc3F)N(C)C)CC2)n1 (stereo unspecified),-7.568%
COc1ccc(CCC(=O)N2CCCC(n3cncn3)C2)cc1 (stereo unspecified),-8.14%
COCCOc1ccccc1C(=O)N1CCCC(c2cc(C)[nH]n2)C1 (stereo unspecified),-3.814%
CCCNC(=O)C(C)Nc1ccc(OCC)cc1 (stereo unspecified),-3.964%
CS(=O)(=O)C1CCN(S(=O)(=O)Cc2cccc(F)c2)CC1,1.498%
Cc1nnc(N2CCN(C(=O)NC3CC3)CC2)c(C(N)=O)c1C,0%
O=C1CCCCCN1Cc1ncnn1Cc1c(F)cccc1Cl,0.4831%
COCCNS(=O)(=O)c1ccc(CNc2ncccc2C#N)cc1,3.715%
COc1cc(OC)cc(-c2noc(C(N)CCSC)n2)c1 (stereo unspecified),-2.654%
CN(C)C(=O)CN1C[C@@H]2CC[C@H](C1)N(C(=O)CCCn1cncn1)C2,-0.7916%
Cc1c(C(=O)N2CCCOCC2)nnn1-c1cccc2cnccc12,0.7991%
Cc1nc(C)n(CC2CCCN(CC(=O)Nc3nncs3)C2)n1 (stereo unspecified),2.044%
Cc1nc(CNC(=O)Nc2ccc3c(ccn3CCN(C)C)c2)no1,1.486%
CCN(Cc1ccco1)C(=O)c1cc(OC)c2c(c1)OCCO2,-2.648%
Cc1nnc(CN2CCC(N(C)Cc3nnc(C4CC4)n3C)C2)o1 (stereo unspecified),0.8607%

Some entries from above, unchanged:

structure,percent effect
O=C1CCCCCN1Cc1ncnn1Cc1c(F)cccc1Cl,0.4831%
CC(NCCCC#N)c1ccc(S(C)(=O)=O)c(F)c1 (stereo unspecified),3.039%
CN(C)C(=O)CN1C[C@@H]2CC[C@H](C1)N(C(=O)CCCn1cncn1)C2,-0.7916%
COc1ccccc1Oc1ncccc1CNC(=O)[C@H](C)O,1.016%
CCS(=O)(=O)NC[C@]12COC[C@H]1CN(Cc1cc(C)on1)C2,1.657%
COc1ccc(COCC(O)CNC(=O)c2cc(C)no2)cc1 (stereo unspecified),-0.3834%

From ChEMBL document CHEMBL3988442, “University of Dundee, Small-Polar-MMV Screening Library” (2021).